Test results published in publication PMC4937518.
Results are given in words; binding and its absence hold for the method and conditions named. For some of these results: Binding seen in cells or lysates may run through a third protein. Some entries that bind do so weakly or less than the wild type.

T1: aspartate beta-hydroxylase (ASPH) (human (endogenous in U2OS)) (UniProt Q12797)
T1 sequence: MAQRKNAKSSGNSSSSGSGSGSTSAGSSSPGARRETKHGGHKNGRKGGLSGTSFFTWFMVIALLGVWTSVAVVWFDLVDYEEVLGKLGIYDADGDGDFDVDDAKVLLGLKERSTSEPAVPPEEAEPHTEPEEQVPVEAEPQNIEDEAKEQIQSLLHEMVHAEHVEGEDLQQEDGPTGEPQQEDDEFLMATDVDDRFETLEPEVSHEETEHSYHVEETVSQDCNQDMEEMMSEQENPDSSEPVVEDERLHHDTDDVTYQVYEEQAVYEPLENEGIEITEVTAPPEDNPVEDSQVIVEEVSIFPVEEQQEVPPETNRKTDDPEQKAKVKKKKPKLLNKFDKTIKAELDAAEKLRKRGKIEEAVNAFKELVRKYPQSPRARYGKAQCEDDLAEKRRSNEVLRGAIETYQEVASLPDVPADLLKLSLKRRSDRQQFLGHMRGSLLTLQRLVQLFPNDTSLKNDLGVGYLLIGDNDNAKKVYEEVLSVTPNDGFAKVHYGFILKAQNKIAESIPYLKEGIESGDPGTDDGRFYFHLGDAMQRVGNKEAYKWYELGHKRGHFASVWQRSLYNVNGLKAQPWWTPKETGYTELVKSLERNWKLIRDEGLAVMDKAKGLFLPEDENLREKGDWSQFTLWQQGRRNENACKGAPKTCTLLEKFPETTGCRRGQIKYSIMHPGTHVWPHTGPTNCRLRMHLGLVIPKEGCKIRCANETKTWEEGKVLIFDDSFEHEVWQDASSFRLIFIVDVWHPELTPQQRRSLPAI


How the values were obtained:
[1] = target: mesoderm development candidate 2 (MESDC2) (human (endogenous in U2OS)) (UniProt Q14696); assay: SEC; protein correlation profiling of native (not crosslinked) U2OS cell extract, 40 fractions, LC-MS/MS; RAW files of the authors' previous native SEC analysis (ref. 6) analysed again here together with the crosslinked data set
[2] = target: T1, aspartate beta-hydroxylase (ASPH) (human (endogenous in U2OS)); assay: as above
[3] = target: T1, aspartate beta-hydroxylase (ASPH) (human (endogenous in U2OS)); assay: cross-linking + SEC; protein correlation profiling: U2OS cells crosslinked in vivo with 6% formaldehyde (30 min, room temperature), lysed in 4% SDS with TCEP, denaturing SEC (BioBasic SEC1000, 0.2% SDS, 100 mM NaCl, 10 mM NaPO4 pH 6.0, 30 °C), 48 fractions, crosslinks reversed by heat, LC-MS/MS, LFQ elution profiles, n = 3
[4] = target: STX4 (human (endogenous in U2OS)) (UniProt Q12846); assay: as above

Row | binding [1] | binding [3] | binding [4] | Binder | binding [2]
1 | no binding | binds weakly | – | mesoderm development candidate 2 (MESDC2) (protein, UniProt Q14696 34-234) AEGSPGTPDESTPPPRKKKKDIRDYNDADMARLLEQWEKDDDIEEGDLPEHKRPSAPVDFSKIDPSKPESILKMTKKGKTLMMFVTVSGSPTEKETEEITSLWQGSLFNANYDVQRFIVGSDRAIFMLRDGSYAWEIKDFLVGQDRCADVTLEGQVYPGKGGGSKEKNKTKQDKGKKKKEGDLKSRSSKEENRAGNKREDL | no binding (condition: native extract, not crosslinked)
2 | – | – | binds | SNAP23 (protein, UniProt O00161 1-211) MDNLSSEEIQQRAHQITDESLESTRRILGLAIESQDAGIKTITMLDEQKEQLNRIEEGLDQINKDMRETEKTLTELNKCCGLCVCPCNRTKNFESGKAYKTTWGDGGENSPCNVVSKQPGPVTNGQLQQPTTGAASGGYIKRITNDAREDEMEENLTQVGSILGNLKDMALNIGNEIDAQNPQIKRITDKADTNRDRIDIANARAKKLIDS | –
